The whole screen tested about 320,000 compounds, of which about 22,000 (6.9%) were called active. This list was built around the results that the source calls inconclusive (neither active nor inactive); the mix of calls is not that of the screen. Calls follow the shape of the dose curve; as a rule, active = well fitted inhibition curve with a large enough effect; inconclusive = small, poorly fitted or top-dose-only effect, or another doubt; inactive = no such curve, though single readings can be large or run the other way. Potencies of inconclusive entries are doubtful fits and often do not repeat.
Test: Primary qHTS for delayed death inhibitors of the malarial parasite plastid, 96 hour incubation
Conditions: P. falciparum luciferase reporter growth; series mostly up to 28.7 µM; activity change, negative = inhibition: at the top concentration
How it was run: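 Parasite growth measured via integrated firefly luciferase reporter in P. falciparum. Infected erythrocytes at 2% hematocrit, 0.05% parasitemia final were treated 96 hours at 37 C under 5% CO2, and luminescence was read.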
% is scaled to controls: 0 for no effect and ±100 for the full control effect; potency is read from the fitted curve at half-maximal effect.

Compound | Potency | activity change, negative = inhibition
CCN(CC)Cc1c(-c2ccccc2)[nH]c2ccc(C)cc2c1=O | inconclusive: 9.28 µM [inhibitor, single point] | –
COc1ccc(S(=O)(=O)Oc2ccccc2C(=S)N2CCOCC2)cc1 | inconclusive: 14.7 µM [inhibitor, partial curve, poor fit] | –
CSc1ccc(CN2CCN(Cc3ccc([N+](=O)[O-])cc3)CC2)cc1 | inconclusive: 8.28 µM [inhibitor, partial curve, poor fit] | –
C=CCc1ccccc1OCC(O)Cn1ccnc1C (stereo not given) | active: 1.47 µM | –
Cc1noc(C)c1COc1ccc(C(=O)NCCc2ccc(F)cc2)cc1 | inconclusive: 11.7 µM [inhibitor, single point] | –
O=C(Nc1ccc(Cl)cc1)c1cccc(S(=O)(=O)Nc2ccccn2)c1 | active: 13.1 µM | –
COC(=O)C1CC(O)CN1S(=O)(=O)c1ccc2ccccc2c1 (stereo not given) | – | inactive: 0.505%
COc1ccc(-c2cn3cccnc3n2)cc1NC(=O)C1CCCC1 | – | inactive: 10.6%
C/C(=N\NC(=O)Cn1cc([N+](=O)[O-])cn1)c1ccco1 | – | inactive: 22.6%
CCOc1ccccc1C1CC(c2cccc(NS(C)(=O)=O)c2)=NN1C(=O)c1ccccc1 (stereo not given) | active: 13.1 µM | –
Cc1ccc(Oc2cc(NC(=O)CCCn3nc(C)c([N+](=O)[O-])c3C)cc([N+](=O)[O-])c2)cc1 | inconclusive: 2.62 µM [inhibitor, partial curve, poor fit] | –
CC1(C(=O)NCC2CCCO2)Oc2cccnc2NC1=O (stereo not given) | inconclusive: 18.5 µM [inhibitor, single point] | –
COC(=O)/C=C/c1cnc[nH]1 | – | inactive: -32.6%
CN=C1SC(CC(=O)Nc2sc(C)c(C)c2C(=O)OC)C(=O)N1C (stereo not given) | inconclusive: 0.294 µM [inhibitor, full curve, poor fit] | –
CC(Sc1ccsc1[N+](=O)[O-])C(=O)NCCc1ccc(Cl)cc1 (stereo not given) | inconclusive: 18.5 µM [inhibitor, single point] | –
O=C(NCCCCc1ccccc1)C12CN(Cc3ccccc3)CC1C(c1ccc([N+](=O)[O-])cc1)=NO2 (stereo not given) | inconclusive: 13.1 µM [inhibitor, single point] | –
CCC(Sc1nc2cc(OC)c(OC)cc2c(=O)n1Cc1ccco1)C(=O)NCCOC (stereo not given) | inconclusive: 13.1 µM [inhibitor, partial curve, poor fit] | –
O=C1c2ccccc2NC(c2cccc(Cl)c2)N1N=C1CCCCCC1 (stereo not given) | inconclusive: 18.5 µM [inhibitor, partial curve, poor fit] | –
CS(=O)(=O)c1ccc2nc(NC(=O)CCNC(=O)c3ccc([N+](=O)[O-])cc3)sc2c1 | active: 0.738 µM | –
C=CCOC(=O)CN1C(=O)c2ccccc2C1=O | – | inactive: -19.7%
CCc1cc(C(=O)NNC(=S)Nc2cc(C)ccc2C)cs1 | inconclusive: 18.5 µM [inhibitor, single point] | –
O=C(CSc1nc2ccsc2c(=O)n1Cc1ccc(C(=O)O)cc1)NCC1CCCO1 (stereo not given) | inconclusive: 10.4 µM [inhibitor, partial curve, poor fit] | –
OCCSc1nnc(Nc2ccccc2)s1 | inconclusive: 0.0415 µM [inhibitor, partial curve, poor fit] | –
COCc1cc(C)nc2sc(C(=O)Nc3ccc(OC)cc3)c(N)c12 | inconclusive: 13.1 µM [inhibitor, single point] | –

Single records, from the list above.
C/C(=N\NC(=O)Cn1cc([N+](=O)[O-])cn1)c1ccco1 in the list: activity change, negative = inhibition: inactive: 22.6%
O=C1c2ccccc2NC(c2cccc(Cl)c2)N1N=C1CCCCCC1 (stereo not given) in the list: Potency: inconclusive: 18.5 µM [inhibitor, partial curve, poor fit]
COC(=O)/C=C/c1cnc[nH]1 in the list: activity change, negative = inhibition: inactive: -32.6%

The list goes on:

Compound | Potency | activity change, negative = inhibition
COc1cc(F)c(S(=O)(=O)N2CCOc3ccccc32)cc1OC | – | inactive: 53.6%
COc1cccc(NC(=O)N2CCCC2C(=O)NC23CC4CC(CC(C4)C2)C3)c1 (stereo not given) | – | inactive: 1.53%
Cc1ccc(SCC(=O)NNC(=O)c2ccccc2)cc1C | – | inactive: 9.49%
COc1ccc(Cc2nnc(SCC(=O)c3c(N)n(C4CC4)c(=O)[nH]c3=O)o2)cc1 | inconclusive: 3.7 µM [inhibitor, partial curve, poor fit] | –
CCOC(=O)N1CCC(N2C(=O)c3ccc(C(=O)NCCOC)cc3C2=O)CC1 | inconclusive: 11.7 µM [inhibitor, single point] | –
Cc1cc(Br)ccc1SCC(=O)OCC(=O)NC1CCCC1 | – | inactive: 15.3%
CCCCN(C(=O)c1ccc(C)o1)c1c(N)n(CCCC)c(=O)[nH]c1=O | inconclusive: 8.28 µM [inhibitor, partial curve, poor fit] | –
Cc1cc(C)cc(NC(=O)N2CCCCCCC2)c1 | – | inactive: -12.7%
COc1ccc(-c2noc(CNS(=O)(=O)c3ccc(NC(C)=O)cc3)n2)cc1OC | inconclusive: 18.5 µM [inhibitor, single point] | –
C=CCC1(C#N)C(=S)NC2=C(C(=O)CC(C)(C)C2)C1c1ccc(Br)cc1 (stereo not given) | inconclusive: 18.5 µM [inhibitor, single point] | –
Cc1cc(C)nc(SCCN(C)C)n1 | – | inactive: 52.6%
Cc1ccc(/C=N/N2C(=O)C3C(C2=O)C2C=CC3C23CC3)o1 (stereo not given) | – | inactive: -3.06%
FC(F)(F)c1ccccc1NC(=S)Nc1cccc(Cl)c1 | inconclusive: 11.7 µM [inhibitor, partial curve] | –
COc1cc(C(=O)N2CCN(c3ccccc3O)CC2)ccc1OCC(=O)N1CCOCC1 | inconclusive: 18.5 µM [inhibitor, single point] | –
COc1cc2c(cc1OC)[C@@H](Cc1cc(OC)c(OC)c(OC)c1)[N+](C)(CCCOC(=O)CC/C=C/CCC(=O)OCCC[N+]1(C)CCc3cc(OC)c(OC)cc3[C@H]1Cc1cc(OC)c(OC)c(OC)c1)CC2 (stereo not given in full) | inconclusive: 15.1 µM [inhibitor, single point] | –
Cc1onc(-c2ccccc2Cl)c1C(=O)NCCCc1ccccc1 | inconclusive: 18.5 µM [inhibitor, single point] | –
COc1cc(/C=C/C(=O)NC2CCCCC2)cc(OC)c1OC | inconclusive: 20.8 µM [inhibitor, single point] | –
CCOc1ccc(C2=NNC(c3cccs3)=Nc3ccc(OCC)cc32)cc1 | inconclusive: 11.7 µM [inhibitor, single point] | –
CCOC(=O)C1CCN(Cc2cc(C(C)C)c(O)c(C(C)C)c2)CC1 | active: 0.415 µM | –
CCn1cnc2c1c(=O)n(CC(=O)NN)c(=O)n2Cc1ccccc1 | inconclusive: 11.7 µM [inhibitor, single point] | –
CCCCCCCN1C(Nc2ccccc2)=NC[C@@H]1CC(C)C | inconclusive: 10.4 µM [inhibitor, single point] | –
COc1cccc(CN2CCN(CC(=O)NCCc3ccccc3)CC2)c1 | – | inactive: -0.874%
CCOC(=O)/C(=N\Nc1ccc(Br)cc1)N1CCN(c2ccccc2OC)CC1 | inconclusive: 18.5 µM [inhibitor, single point] | –
O=C(Nc1ccc(F)cc1)c1cc2ccccc2o1 | inconclusive: 11.7 µM [inhibitor, single point] | –

Compound | Potency | activity change, negative = inhibition
Cc1cccc(C(=O)O/N=C/c2c(Cl)n(C)c3ccccc23)c1 | – | inactive: 34%
O=C(Nc1oc2ccccc2c(=O)c1-c1ccc(Br)cc1)c1ccco1 | – | inactive: -19.2%
C/C(=N\NC(=O)CSc1nc2ccccc2o1)c1ccc(O)cc1 | – | inactive: 248%
O=C(CSc1ccccc1C(=O)O)c1ccc([N+](=O)[O-])cc1 | – | inactive: 93.1%
CCC(Oc1cc(Cl)ccc1Cl)C(=O)N1CCCN(C)CC1 (stereo not given) | – | inactive: 9.74%
NS(=O)(=O)c1ccc(Nc2c([N+](=O)[O-])cncc2[N+](=O)[O-])cc1 | inconclusive: 7.38 µM [inhibitor, partial curve, poor fit] | –
CCCCC[n+]1ccn(C2=C([O-])c3ccccc3C(=O)/C2=N\S(=O)(=O)c2ccccc2)c1 | active: 5.86 µM | –
COc1ccccc1NC(=O)Cn1cnc2c(cnn2-c2ccccc2)c1=O | – | inactive: 19.3%
O=C(CSc1ccc(-c2ccncc2)nn1)N1CCN(c2ccccc2)CC1 | inconclusive: 13.1 µM [inhibitor, single point] | –
CCOC(=O)c1cccc(C2=CC(=O)C[C@H](c3ccc(OC)c(OC)c3)C2)c1 | inconclusive: 7.38 µM [inhibitor, partial curve] | –
Cc1cccc(NC(=S)/N=C(\N)Nc2nc(C)c3ccc(C)cc3n2)c1 | inconclusive: 0.0329 µM [inhibitor, full curve, poor fit] | –
CNS(=O)(=O)c1cccc(C(=O)OCC(=O)Nc2ccc(Cl)cn2)c1 | – | inactive: 25.8%
Cc1cc(NC(=O)CC(C)(C)C)nc2c1c(=O)oc1ccccc12 | inconclusive: 18.5 µM [inhibitor, single point] | –
O=C(NNS(=O)(=O)c1ccc(F)cc1)c1ccccc1F | inconclusive: 2.62 µM [inhibitor, partial curve] | –
COc1ccc(OC)c(NC(=S)N2CCc3ccccc3C2)c1 | active: 4.15 µM | –
CCCCc1cc(=O)oc2cc(OCC(=O)N(CC)CC)c(Cl)cc12 | inconclusive: 10.4 µM [inhibitor, partial curve, poor fit] | –
C=CCNC(=S)/C(=C(\[O-])c1ccc(Cl)cc1)[n+]1ccccc1 | inconclusive: 8.28 µM [inhibitor, partial curve, poor fit] | –
COc1ccc(C(=O)COC(=O)c2cccnc2SC)cc1 | inconclusive: 0.738 µM [inhibitor, partial curve, poor fit] | –
CC/C(=N\NC(=S)NC(C)C)c1ccc(OC(F)F)cc1 | inconclusive: 18.5 µM [inhibitor, single point] | –
CC(=O)c1c(C)[nH]c(C(=O)OCC(=O)NCc2ccc3c(c2)OCO3)c1C | inconclusive: 18.5 µM [inhibitor, single point] | –
O=C(CSc1ccccn1)N1CCCC(Nc2ccc(F)c(F)c2)C1 (stereo not given) | – | inactive: 1.06%
CCN(CC)S(=O)(=O)c1cc(NC(=O)C(C)N2CC=C(c3ccccc3)CC2)ccc1C (stereo not given) | inconclusive: 18.5 µM [inhibitor, single point] | –

Reference: PubChem BioAssay AID504834 (National Center for Advancing Translational Sciences (NCATS), 2011)
